# Some of the results follow.
# Sequences of proteins named here, by UniProt entry; tags and fusion partners are left off. A change or cut given only in a name is not applied to a line headed by its entry.
# UniProt Q16342: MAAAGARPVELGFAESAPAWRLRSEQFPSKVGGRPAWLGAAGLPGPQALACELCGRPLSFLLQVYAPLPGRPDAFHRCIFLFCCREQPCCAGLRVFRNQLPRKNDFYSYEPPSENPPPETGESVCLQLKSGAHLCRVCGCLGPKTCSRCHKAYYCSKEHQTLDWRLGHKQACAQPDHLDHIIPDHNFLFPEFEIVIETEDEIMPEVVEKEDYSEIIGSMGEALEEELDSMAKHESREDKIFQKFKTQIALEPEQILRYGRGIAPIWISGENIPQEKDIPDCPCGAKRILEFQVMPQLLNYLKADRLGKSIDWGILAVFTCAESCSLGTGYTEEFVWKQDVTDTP
# UniProt P18669: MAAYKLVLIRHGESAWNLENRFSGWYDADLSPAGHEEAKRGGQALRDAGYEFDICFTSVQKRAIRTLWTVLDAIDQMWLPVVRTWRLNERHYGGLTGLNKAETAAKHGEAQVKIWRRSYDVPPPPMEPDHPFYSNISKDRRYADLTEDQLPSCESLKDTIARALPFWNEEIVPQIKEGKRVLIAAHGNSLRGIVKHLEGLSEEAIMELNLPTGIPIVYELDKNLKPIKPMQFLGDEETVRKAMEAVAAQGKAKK
# UniProt Q15366, whole entry, looked up: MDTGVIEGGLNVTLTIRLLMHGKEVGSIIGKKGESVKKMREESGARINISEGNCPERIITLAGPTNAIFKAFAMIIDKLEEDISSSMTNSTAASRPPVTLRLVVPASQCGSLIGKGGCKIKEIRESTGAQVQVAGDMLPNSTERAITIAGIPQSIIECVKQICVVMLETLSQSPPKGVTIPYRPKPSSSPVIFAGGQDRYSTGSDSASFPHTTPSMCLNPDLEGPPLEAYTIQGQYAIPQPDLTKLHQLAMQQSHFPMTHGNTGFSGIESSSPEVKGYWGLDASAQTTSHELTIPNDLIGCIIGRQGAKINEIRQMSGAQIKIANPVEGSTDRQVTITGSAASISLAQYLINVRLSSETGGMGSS
# UniProt O15212, whole entry, looked up: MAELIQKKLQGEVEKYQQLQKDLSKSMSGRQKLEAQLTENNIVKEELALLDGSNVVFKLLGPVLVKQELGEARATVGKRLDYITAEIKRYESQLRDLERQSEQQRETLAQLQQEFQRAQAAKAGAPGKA
# UniProt P49585: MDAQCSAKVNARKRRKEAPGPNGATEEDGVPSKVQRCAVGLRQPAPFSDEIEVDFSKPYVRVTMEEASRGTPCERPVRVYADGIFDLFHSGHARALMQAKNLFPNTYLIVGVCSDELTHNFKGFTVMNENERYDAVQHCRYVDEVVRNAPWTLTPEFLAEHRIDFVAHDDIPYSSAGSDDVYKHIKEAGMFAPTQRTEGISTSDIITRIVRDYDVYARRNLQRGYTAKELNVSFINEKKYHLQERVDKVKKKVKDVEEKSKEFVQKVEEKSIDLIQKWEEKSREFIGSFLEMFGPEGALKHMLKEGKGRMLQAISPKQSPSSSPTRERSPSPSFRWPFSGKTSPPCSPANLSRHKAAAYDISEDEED
# UniProt P57721, whole entry, looked up: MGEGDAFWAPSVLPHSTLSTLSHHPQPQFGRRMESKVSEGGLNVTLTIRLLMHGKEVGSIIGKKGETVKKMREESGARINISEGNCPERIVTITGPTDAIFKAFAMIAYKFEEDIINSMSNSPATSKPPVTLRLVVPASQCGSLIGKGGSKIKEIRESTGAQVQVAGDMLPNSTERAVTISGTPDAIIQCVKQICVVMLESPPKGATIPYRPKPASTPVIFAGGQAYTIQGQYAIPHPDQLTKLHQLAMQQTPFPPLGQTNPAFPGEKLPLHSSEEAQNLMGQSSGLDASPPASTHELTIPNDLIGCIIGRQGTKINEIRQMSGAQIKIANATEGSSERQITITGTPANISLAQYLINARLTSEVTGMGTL
# UniProt P30086: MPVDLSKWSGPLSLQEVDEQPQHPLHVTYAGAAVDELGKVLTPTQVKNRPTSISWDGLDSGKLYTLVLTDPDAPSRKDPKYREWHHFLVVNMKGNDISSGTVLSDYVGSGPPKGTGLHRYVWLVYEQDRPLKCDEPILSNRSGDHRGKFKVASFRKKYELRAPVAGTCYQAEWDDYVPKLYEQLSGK
# UniProt Q9BUH6, whole entry, looked up: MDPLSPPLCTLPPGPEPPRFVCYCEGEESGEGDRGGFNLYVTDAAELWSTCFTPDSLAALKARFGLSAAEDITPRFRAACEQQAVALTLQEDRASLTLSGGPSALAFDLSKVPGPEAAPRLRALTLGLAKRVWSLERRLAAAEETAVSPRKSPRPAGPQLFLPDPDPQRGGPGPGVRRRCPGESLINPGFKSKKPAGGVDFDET
# UniProt Q99471, whole entry, looked up: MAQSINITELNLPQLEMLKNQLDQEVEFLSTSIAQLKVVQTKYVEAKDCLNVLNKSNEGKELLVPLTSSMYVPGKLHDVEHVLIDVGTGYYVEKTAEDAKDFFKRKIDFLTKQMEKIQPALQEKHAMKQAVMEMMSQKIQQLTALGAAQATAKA
# UniProt Q96HS1, whole entry, looked up: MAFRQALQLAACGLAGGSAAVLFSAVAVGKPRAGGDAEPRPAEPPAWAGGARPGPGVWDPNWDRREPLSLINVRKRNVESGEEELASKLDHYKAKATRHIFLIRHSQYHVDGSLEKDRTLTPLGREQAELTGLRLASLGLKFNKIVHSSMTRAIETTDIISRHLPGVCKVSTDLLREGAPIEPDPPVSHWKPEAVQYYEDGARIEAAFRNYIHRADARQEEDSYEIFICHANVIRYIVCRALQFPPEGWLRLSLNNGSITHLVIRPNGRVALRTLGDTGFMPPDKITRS
# UniProt O96011: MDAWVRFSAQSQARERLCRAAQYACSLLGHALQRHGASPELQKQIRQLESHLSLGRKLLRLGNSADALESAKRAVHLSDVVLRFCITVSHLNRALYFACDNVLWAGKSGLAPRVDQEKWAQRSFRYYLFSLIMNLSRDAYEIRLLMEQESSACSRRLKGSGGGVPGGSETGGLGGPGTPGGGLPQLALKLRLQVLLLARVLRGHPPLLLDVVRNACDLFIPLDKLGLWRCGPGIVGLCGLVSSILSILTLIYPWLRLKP
# UniProt P17858: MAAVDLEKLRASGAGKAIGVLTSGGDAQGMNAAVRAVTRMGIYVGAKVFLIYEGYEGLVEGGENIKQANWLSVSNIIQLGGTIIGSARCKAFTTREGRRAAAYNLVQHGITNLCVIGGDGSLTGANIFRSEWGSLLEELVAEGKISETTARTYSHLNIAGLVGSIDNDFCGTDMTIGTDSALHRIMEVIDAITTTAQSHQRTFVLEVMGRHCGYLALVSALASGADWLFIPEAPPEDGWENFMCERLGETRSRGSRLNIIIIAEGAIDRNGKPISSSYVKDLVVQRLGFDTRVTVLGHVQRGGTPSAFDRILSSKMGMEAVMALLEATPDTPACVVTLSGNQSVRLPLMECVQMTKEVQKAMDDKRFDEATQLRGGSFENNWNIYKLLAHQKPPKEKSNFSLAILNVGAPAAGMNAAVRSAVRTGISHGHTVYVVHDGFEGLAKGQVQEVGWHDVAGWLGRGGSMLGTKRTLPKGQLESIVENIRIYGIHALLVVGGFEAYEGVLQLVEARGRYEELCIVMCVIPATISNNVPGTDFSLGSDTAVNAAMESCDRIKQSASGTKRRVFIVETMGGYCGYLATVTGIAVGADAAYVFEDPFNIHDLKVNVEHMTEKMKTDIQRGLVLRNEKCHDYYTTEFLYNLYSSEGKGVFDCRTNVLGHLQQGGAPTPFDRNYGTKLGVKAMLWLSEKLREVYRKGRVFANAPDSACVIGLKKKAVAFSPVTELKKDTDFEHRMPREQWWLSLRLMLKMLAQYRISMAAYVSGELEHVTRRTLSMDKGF
# UniProt P12955: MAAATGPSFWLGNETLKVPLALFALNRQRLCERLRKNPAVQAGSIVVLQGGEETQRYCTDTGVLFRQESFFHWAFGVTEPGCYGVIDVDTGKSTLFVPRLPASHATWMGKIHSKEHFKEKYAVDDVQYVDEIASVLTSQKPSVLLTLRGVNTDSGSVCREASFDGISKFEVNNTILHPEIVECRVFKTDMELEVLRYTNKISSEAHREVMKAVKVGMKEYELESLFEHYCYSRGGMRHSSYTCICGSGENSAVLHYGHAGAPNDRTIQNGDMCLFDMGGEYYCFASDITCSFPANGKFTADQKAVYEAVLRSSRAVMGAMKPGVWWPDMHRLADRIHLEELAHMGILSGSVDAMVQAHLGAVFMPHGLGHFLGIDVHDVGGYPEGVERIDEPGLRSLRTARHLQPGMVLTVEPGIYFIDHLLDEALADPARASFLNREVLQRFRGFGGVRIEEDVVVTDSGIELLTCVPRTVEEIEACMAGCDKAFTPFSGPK
# UniProt Q92968: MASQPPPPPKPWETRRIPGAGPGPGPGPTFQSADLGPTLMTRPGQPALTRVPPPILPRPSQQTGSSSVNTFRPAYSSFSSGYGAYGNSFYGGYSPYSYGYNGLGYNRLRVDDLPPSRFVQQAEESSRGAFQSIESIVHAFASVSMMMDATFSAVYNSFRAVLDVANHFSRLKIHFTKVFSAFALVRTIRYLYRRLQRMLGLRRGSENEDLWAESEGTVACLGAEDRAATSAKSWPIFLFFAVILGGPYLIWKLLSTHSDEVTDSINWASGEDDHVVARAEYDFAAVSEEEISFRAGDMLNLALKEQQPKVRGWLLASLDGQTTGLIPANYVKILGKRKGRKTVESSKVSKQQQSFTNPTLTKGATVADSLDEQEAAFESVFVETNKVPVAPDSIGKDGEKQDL
# UniProt O95453: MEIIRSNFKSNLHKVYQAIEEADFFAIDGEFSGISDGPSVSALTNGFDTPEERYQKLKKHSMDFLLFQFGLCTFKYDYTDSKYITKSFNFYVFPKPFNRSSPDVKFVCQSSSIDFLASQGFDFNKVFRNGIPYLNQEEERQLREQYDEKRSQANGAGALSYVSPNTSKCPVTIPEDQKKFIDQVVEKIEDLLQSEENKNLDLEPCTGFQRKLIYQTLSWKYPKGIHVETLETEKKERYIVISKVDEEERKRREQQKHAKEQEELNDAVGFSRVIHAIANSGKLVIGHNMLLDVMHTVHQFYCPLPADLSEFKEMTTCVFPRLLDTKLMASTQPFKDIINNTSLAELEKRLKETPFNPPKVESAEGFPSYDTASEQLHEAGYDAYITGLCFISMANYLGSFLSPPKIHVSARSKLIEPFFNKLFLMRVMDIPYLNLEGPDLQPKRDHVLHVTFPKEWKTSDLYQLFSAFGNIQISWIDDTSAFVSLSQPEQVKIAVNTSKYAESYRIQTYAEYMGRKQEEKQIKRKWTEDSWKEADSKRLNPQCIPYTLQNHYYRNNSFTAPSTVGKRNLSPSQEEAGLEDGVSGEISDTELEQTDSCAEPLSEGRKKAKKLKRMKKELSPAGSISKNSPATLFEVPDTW
# UniProt Q8IZL8: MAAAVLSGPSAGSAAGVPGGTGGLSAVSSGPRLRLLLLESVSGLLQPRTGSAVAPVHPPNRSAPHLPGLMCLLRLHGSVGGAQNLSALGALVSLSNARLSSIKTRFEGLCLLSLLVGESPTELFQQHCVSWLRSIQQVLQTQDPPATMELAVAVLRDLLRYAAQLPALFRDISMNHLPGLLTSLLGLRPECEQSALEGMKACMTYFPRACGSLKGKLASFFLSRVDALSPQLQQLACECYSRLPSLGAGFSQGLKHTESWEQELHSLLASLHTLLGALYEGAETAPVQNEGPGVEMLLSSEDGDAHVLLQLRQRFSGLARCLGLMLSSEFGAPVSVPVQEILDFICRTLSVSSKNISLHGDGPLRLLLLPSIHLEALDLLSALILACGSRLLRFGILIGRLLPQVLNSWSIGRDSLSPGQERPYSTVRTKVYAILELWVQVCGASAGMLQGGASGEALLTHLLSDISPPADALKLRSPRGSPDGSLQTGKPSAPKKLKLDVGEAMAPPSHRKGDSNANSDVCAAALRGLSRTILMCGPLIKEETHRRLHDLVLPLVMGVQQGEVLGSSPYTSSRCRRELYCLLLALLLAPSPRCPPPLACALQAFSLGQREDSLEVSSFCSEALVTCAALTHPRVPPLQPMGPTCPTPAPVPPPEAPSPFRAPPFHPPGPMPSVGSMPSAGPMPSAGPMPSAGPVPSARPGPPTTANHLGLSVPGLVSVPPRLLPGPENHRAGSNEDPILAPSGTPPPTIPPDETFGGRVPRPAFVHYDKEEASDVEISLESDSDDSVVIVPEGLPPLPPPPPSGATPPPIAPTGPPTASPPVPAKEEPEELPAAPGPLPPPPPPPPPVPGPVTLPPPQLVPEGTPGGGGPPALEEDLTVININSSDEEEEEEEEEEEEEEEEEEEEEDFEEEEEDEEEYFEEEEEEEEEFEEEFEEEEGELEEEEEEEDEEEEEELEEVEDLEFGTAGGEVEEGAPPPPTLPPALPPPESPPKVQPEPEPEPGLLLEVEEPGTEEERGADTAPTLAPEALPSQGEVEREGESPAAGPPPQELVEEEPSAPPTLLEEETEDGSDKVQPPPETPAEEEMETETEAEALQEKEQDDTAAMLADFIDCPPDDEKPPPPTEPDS
# UniProt Q9BUL8: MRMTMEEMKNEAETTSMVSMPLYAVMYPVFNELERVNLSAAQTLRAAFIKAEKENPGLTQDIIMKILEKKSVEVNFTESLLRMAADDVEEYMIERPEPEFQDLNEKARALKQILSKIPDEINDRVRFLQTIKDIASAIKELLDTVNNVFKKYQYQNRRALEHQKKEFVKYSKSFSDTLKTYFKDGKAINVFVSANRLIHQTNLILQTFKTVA
# Compound: CC[C@@H]1C(=O)N(C)c2cnc(Nc3ccc(C(=O)N[C@H]4CC[C@H](N5CCN(CC6CC6)CC5)CC4)cc3OC)nc2N1C(C)C [volasertib]
# Assay: log2 fold change, soluble protein after heating vs DMSO (PISA); higher = thermal stabilisation; K562 lysate, 10 uM; active = over 0.2 and 3.5 SD of the protein, either way, in both replicates (recomputed)
# Outline: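 Values give the log-two fold change in thermal stability against solvent controls, from duplicates. Crude K562 extract at 1 mg/mL protein, made by dounce homogenisation in PBS pH 7.4 with 1 mM MgCl2, was treated with 10 μM compound for 30 min. After 3 min heating across 48°C-58°C, aliquots were pooled, adjusted to 0.5% NP-40 at 4°C and centrifuged at 21,000xg for 90 min. The supernatant was measured by TMTpro 16plex LC-MS/MS with channel sums equalised.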
row,Target,log2 fold change
1,PDCD2 (UniProt Q16342),inactive: 0.006
2,PGAM1 (UniProt P18669),inactive: -0.007
3,PDCD6IP isoform 2 (UniProt Q8WUM4),inactive: -0.022
4,PC (UniProt P11498),inactive: -0.056
5,PCBP2 isoform 3 (UniProt Q15366),inactive: -0.003
6,PCIF1 (UniProt Q9H4Z3),inactive: 0.005
7,PFDN6 (UniProt O15212),inactive: 0.03
8,PCYT1A (UniProt P49585),inactive: 0.004
9,PCBP3 (UniProt P57721),inactive: 0.006
10,PDS5B (UniProt Q9NTI5),inactive: -0.026
11,PEBP1 (UniProt P30086),inactive: 0.035
12,PAXX (UniProt Q9BUH6),inactive: 0.054
13,PFDN5 (UniProt Q99471),inactive: 0.063
14,PGAM5 (UniProt Q96HS1),inactive: -0.034
15,PEX11B (UniProt O96011),inactive: -0.014
16,PFKL isoform 2 (UniProt P17858),inactive: 0.028
17,PEPD (UniProt P12955),inactive: 0.011
18,PEX13 (UniProt Q92968),inactive: 0.052
19,PCBD1 (UniProt P61457),inactive: 0.03
20,PARN (UniProt O95453),inactive: -0.021
21,PARP2 (UniProt Q9UGN5),inactive: 0.012
22,PELP1 (UniProt Q8IZL8),inactive: 0.024
23,PDCD10 (UniProt Q9BUL8),inactive: 0.007

# Taken from above.
# PFDN5 (UniProt Q99471) | log2 fold change: inactive: 0.063
# PAXX (UniProt Q9BUH6) | log2 fold change: inactive: 0.054

# Reference: the supplement of paper PMC10849652
